# Assay results published in the supplement of paper PMC10849652.
# Sequences of proteins named here, by UniProt entry; tags and fusion partners are left off. A change or cut given only in a name is not applied to a line headed by its entry.
# UniProt P29692: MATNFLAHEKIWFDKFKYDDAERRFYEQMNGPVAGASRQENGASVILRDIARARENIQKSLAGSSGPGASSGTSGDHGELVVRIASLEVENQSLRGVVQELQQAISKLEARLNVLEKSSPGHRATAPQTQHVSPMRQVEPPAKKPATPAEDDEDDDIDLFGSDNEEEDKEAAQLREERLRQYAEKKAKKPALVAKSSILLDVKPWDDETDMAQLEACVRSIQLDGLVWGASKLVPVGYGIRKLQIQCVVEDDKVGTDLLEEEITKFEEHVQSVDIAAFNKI
# UniProt Q99848: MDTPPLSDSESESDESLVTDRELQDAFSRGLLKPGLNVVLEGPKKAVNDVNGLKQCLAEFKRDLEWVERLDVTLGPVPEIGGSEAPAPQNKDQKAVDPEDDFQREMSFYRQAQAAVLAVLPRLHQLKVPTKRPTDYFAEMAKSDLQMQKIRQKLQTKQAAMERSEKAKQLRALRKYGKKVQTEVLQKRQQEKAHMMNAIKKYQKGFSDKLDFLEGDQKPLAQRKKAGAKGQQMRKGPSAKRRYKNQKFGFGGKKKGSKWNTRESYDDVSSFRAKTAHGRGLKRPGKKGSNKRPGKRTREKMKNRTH
# UniProt Q9H8V3: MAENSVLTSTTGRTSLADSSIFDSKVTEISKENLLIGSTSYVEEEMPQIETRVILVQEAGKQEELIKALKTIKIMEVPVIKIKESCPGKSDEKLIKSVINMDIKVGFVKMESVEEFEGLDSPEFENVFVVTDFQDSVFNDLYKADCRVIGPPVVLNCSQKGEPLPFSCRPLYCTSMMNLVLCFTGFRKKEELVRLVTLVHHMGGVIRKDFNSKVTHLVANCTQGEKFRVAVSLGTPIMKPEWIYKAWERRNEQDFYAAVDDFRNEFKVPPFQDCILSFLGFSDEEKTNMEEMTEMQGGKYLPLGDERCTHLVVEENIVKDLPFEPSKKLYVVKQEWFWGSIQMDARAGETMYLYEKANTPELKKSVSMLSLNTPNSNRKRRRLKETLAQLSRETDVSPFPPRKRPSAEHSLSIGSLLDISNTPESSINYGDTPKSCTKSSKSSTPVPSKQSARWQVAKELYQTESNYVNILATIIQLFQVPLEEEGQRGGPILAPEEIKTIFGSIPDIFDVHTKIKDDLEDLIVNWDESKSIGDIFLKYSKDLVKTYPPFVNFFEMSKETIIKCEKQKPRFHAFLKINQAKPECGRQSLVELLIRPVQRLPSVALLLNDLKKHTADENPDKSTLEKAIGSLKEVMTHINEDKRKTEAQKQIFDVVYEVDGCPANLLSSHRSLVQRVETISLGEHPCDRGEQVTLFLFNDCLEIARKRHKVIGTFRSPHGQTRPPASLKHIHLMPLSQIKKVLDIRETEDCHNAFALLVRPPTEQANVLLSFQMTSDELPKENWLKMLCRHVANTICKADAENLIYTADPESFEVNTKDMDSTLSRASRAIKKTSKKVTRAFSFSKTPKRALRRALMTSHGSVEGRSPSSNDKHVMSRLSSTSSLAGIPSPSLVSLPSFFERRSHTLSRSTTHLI
# UniProt P51452: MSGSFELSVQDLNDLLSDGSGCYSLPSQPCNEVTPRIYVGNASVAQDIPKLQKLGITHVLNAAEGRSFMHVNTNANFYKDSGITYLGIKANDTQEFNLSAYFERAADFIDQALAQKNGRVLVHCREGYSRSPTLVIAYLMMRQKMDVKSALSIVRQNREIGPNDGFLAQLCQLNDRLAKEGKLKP
# UniProt Q9H2P9: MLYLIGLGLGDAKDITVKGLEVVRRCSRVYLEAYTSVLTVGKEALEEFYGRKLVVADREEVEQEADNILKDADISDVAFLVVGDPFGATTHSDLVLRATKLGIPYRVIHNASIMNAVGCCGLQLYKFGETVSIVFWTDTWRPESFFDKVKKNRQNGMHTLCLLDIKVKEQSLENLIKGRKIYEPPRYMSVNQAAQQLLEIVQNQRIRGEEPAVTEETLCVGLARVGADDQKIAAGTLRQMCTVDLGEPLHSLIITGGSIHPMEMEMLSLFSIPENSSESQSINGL
# UniProt P33316: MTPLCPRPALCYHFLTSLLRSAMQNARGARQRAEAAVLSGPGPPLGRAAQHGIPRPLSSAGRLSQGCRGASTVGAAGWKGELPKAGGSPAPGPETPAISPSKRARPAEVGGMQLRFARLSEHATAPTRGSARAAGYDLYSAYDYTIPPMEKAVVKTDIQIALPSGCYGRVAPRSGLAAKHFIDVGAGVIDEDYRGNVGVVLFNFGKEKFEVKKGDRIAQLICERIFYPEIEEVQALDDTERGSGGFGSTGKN
# UniProt Q96FJ2, whole entry, looked up: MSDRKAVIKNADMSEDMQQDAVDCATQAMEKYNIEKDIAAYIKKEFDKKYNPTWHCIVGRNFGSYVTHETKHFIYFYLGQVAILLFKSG
# UniProt Q92785, whole entry, looked up: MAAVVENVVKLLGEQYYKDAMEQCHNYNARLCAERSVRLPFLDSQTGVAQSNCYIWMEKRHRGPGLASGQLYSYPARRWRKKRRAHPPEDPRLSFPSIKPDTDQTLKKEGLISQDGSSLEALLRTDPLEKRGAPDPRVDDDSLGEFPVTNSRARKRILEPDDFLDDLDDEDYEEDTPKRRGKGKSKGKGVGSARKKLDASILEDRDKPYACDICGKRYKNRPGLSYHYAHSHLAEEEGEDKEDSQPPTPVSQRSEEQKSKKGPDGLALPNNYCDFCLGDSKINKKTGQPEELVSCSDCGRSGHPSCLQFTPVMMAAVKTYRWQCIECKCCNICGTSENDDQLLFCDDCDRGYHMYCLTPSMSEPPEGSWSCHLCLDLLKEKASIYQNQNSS
# UniProt Q5VYK3, whole entry, looked up: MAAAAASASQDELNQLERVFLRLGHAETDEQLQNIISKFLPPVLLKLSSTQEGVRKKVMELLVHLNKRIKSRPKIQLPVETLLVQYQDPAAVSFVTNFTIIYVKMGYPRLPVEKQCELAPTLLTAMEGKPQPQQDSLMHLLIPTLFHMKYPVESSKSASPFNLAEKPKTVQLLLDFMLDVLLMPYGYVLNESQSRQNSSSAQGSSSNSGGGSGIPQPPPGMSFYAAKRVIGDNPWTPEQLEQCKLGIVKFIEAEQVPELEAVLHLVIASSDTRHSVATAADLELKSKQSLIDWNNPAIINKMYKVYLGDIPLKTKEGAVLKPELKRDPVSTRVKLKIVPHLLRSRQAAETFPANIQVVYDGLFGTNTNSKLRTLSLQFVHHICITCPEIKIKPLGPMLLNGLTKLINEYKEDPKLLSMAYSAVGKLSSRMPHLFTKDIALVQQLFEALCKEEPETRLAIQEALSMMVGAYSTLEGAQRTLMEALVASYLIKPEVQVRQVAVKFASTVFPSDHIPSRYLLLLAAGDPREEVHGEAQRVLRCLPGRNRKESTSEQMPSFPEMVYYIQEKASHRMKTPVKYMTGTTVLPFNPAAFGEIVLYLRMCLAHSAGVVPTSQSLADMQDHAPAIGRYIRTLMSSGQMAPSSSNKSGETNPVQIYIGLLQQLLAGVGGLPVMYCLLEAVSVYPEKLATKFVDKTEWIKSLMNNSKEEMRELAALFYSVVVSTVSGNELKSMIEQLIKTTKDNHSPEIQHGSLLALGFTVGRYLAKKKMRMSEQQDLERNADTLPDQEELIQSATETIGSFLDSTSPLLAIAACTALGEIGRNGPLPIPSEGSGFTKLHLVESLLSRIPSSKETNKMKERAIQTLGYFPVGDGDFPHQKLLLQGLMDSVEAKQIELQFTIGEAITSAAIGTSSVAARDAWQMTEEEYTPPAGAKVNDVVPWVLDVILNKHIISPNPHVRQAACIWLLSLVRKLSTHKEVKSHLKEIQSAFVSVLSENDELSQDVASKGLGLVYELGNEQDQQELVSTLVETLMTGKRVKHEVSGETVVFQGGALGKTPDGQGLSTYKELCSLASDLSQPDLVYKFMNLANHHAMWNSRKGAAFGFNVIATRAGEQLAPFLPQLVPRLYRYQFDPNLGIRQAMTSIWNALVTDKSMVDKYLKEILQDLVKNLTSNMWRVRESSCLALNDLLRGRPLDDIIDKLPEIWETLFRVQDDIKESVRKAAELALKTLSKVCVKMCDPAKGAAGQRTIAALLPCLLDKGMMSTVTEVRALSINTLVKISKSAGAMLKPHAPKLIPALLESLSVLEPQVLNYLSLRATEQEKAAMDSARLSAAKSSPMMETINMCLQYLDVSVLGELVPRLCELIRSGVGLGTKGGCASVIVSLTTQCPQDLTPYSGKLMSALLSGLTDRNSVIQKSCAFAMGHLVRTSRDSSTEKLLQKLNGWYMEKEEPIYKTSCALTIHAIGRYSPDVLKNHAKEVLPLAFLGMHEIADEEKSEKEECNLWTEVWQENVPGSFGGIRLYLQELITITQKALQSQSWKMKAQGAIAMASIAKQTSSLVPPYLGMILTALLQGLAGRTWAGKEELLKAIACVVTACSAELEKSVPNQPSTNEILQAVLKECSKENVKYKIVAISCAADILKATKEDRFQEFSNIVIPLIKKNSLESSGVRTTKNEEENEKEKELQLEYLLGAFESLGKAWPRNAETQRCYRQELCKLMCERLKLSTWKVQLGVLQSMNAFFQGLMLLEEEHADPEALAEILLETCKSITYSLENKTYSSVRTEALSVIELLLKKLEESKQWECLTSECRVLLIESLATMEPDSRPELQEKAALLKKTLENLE
# UniProt Q7RTS9: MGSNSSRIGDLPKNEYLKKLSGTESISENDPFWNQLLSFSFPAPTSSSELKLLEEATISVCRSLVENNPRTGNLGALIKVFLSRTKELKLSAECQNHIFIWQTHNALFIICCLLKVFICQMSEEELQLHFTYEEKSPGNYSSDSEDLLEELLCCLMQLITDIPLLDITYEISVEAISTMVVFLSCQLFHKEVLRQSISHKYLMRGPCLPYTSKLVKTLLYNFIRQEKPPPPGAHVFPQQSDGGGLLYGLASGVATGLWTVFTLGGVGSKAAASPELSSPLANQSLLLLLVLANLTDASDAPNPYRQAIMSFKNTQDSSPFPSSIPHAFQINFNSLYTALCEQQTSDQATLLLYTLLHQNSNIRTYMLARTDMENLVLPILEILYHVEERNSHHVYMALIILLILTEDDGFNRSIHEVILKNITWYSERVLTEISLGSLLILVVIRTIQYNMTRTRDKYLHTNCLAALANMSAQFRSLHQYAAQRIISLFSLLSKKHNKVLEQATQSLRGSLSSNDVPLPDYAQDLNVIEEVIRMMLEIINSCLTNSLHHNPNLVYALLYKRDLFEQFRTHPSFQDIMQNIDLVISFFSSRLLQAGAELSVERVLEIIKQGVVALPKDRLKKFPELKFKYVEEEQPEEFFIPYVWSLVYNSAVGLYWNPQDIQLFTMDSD
# UniProt Q14126: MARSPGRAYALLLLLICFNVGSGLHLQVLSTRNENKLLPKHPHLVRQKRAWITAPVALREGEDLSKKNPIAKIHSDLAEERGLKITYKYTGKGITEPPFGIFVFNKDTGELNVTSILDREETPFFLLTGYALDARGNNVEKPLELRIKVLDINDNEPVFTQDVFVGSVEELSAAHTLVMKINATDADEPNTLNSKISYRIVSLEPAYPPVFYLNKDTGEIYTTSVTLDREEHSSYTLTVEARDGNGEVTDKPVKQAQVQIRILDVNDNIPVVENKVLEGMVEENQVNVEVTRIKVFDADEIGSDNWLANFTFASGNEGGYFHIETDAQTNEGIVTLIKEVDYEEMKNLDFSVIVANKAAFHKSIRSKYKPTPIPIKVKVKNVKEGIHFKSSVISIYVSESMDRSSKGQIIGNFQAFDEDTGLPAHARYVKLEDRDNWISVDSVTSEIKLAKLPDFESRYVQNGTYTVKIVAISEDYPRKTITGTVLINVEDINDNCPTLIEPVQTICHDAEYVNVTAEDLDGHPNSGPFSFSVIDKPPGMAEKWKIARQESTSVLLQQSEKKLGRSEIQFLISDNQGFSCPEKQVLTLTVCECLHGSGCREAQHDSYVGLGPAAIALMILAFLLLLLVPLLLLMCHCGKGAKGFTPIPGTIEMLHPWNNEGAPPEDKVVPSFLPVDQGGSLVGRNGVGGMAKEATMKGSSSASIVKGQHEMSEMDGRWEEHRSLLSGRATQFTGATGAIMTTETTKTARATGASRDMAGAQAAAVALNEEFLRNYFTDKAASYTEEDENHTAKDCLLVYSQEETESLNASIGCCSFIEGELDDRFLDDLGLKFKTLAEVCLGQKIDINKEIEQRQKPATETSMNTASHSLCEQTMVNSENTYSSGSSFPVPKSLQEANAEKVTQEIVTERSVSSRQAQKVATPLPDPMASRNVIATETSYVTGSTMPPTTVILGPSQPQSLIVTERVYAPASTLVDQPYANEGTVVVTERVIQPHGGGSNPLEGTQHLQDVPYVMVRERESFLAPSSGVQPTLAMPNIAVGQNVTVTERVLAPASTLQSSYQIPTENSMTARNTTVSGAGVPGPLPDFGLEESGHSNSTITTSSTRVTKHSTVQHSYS
# EEF1AKMT2, A0A494BZY7, UniProt A0A494BZY7, whole entry, looked up: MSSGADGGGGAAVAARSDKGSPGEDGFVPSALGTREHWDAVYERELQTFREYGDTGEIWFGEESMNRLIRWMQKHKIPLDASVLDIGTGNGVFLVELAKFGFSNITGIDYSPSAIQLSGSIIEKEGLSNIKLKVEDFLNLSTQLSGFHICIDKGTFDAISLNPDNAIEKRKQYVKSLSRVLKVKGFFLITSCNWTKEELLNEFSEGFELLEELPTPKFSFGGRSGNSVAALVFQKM
# This is one part of the list.
# Compound: CC1=C(C=C(C=C1)NC(=O)C2=CC(=CC=C2)C(C)(C)C#N)NC3=CC4=C(C=C3)N=CN(C4=O)C
# Experiment: log2 fold change, soluble protein after heating vs DMSO (PISA); higher = thermal stabilisation; K562 lysate, 10 uM; active = over 0.2 and 3.5 SD of the protein, either way, in both replicates (recomputed)
# Outline: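 To prepare the extract, K562 pellets were dounce-homogenised in PBS pH 7.4 with 1 mM MgCl2, giving crude material at 1 mg/mL protein. This was treated with 10 μM compound for 30 min, then heated in aliquots for 3 min over 48°C-58°C before pooling and addition of NP-40 to 0.5% at 4°C. Centrifugation at 21,000xg for 90 min left soluble protein in the supernatant, which TMTpro 16plex LC-MS/MS quantified with equalised channel sums. Results are log-two fold changes in thermal stability compared with solvent controls, from duplicates.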
row,Target,log2 fold change
1,EEF1D isoform 2 (UniProt P29692),inactive: 0.005
2,DSN1 (UniProt Q9H410),inactive: 0.017
3,EHBP1L1 (UniProt Q8N3D4),inactive: 0.004
4,EBNA1BP2 (UniProt Q99848),inactive: -0.012
5,EAPP (UniProt Q56P03),inactive: -0.015
6,DSTN (UniProt P60981),inactive: -0.005
7,EIF1AD (UniProt Q8N9N8),inactive: 0.006
8,EHD1 (UniProt Q9H4M9),inactive: 0.023
9,EEF1G isoform 2 (UniProt P26641),inactive: -0.015
10,ECT2 (UniProt Q9H8V3),inactive: 0.142
11,EHBP1 isoform 2 (UniProt Q8NDI1),inactive: 0.047
12,DYNLT1 (UniProt P63172),inactive: -0.01
13,DUSP3 (UniProt P51452),inactive: 0.025
14,"EEF1A1, A0A087WVQ9",inactive: -0.023
15,DPH5 isoform 5 (UniProt Q9H2P9),inactive: -0.007
16,DUT (UniProt P33316),inactive: -0.034
17,EEF1B2 (UniProt P24534),inactive: -0.012
18,DYNLL2 (UniProt Q96FJ2),inactive: 0.043
19,EDRF1 (UniProt Q3B7T1),inactive: 0.031
20,DUS1L (UniProt Q6P1R4),inactive: -0.005

row,Target,log2 fold change
1,E4F1 (UniProt Q66K89),inactive: 0.114
2,DPF2 (UniProt Q92785),inactive: 0.072
3,DPH2 (UniProt Q9BQC3),inactive: 0.066
4,EIF1B (UniProt O60739),inactive: 0.304
5,EEA1 (UniProt Q15075),inactive: -0.005
6,DUS2 (UniProt Q9NX74),inactive: -0.004
7,ECPAS (UniProt Q5VYK3),inactive: 0.01
8,DYM (UniProt Q7RTS9),inactive: -0.027
9,EI24 (UniProt O14681),inactive: -0.007
10,DSG2 (UniProt Q14126),inactive: 0.037
11,E2F3 (UniProt O00716),inactive: 0.053
12,DRG1 (UniProt Q9Y295),inactive: -0.016
13,ECE1 (UniProt P42892),inactive: -0.023
14,DUS3L (UniProt Q96G46),inactive: 0.014
15,EHMT2 (UniProt A2ABF8),inactive: 0.004
16,"EEF1AKMT2, A0A494BZY7",inactive: -0.001
17,DPP8 (UniProt Q6V1X1),inactive: -0.064
18,DYNC1LI1 (UniProt Q9Y6G9),inactive: -0.009
19,"DPY19L1, A0A1B0GW05",inactive: 0.008

# Part of the list above, tab-delimited:
row	Target	log2 fold change
4	EBNA1BP2 (UniProt Q99848)	inactive: -0.012
5	EAPP (UniProt Q56P03)	inactive: -0.015
6	DSTN (UniProt P60981)	inactive: -0.005
